Test results reported in publication PMC8074078.
These are yes or no findings as the source states them, for the method shown. Binding seen in cells or lysates may run through a third protein. Here binding means that the protein was enriched with, or labelled near, the bait; the list need not be complete. Values belong to the binder of their own block, whether it stands above or below them.

The chains behind the UniProt entries cited, without tags or fusion partners. Where a name states a change or a piece, a line headed by the entry shows the natural chain unless it says otherwise. A line that says so, or that is headed by a name, gives the form on record, which may keep a tag or linker.
His6-PACRG (Parkin co-regulated gene) (Q96M98, form named): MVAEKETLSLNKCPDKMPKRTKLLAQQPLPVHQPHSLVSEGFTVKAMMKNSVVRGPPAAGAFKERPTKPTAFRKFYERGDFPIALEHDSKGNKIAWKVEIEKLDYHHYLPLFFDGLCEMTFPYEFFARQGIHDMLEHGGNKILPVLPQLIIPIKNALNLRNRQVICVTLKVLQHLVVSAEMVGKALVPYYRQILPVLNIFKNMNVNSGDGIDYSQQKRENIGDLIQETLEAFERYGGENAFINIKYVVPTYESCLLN

Assays:
His6-GST-PACRG (human) = His6-GST-PACRG (human) (UniProt Q96M98); test: affinity purification with mass spectrometry; purified His6-tagged bait coupled to Ni2+-charged resin (2 h, 4 °C), incubated 2 h with supernatant of HEK293T cell lysate, washed three times with 5 mM imidazole; bound proteins identified by LC-MS/MS; controls: Ni2+-charged resin alone (for His6-PACRG) and His6-GST (for His6-GST-PACRG); only proteins found with both baits accepted; only the target purified
[1] = target: His6-PACRG (Parkin co-regulated gene) (human) (UniProt Q96M98); test: as above

binding (His6-GST-PACRG (human)): binds
binding [1]: binds
B1: SEPT9 (protein, UniProt Q9UHD8 1-586)
chain: MKKSYSGGTRTSSGRLRRLGDSSGPALKRSFEVEEVETPNSTPPRRVQTPLLRATVASSTQKFQDLGVKNSEPSARHVDSLSQRSPKASLRRVELSGPKAAEPVSRRTELSIDISSKQVENAGAIGPSRFGLKRAEVLGHKTPEPAPRRTEITIVKPQESAHRRMEPPASKVPEVPTAPATDAAPKRVEIQMPKPAEAPTAPSPAQTLENSEPAPVSQLQSRLEPKPQPPVAEATPRSQEATEAAPSCVGDMADTPRDAGLKQAPASRNEKAPVDFGYVGIDSILEQMRRKAMKQGFEFNIMVVGQSGLGKSTLINTLFKSKISRKSVQPTSEERIPKTIEIKSITHDIEEKGVRMKLTVIDTPGFGDHINNENCWQPIMKFINDQYEKYLQEEVNINRKKRIPDTRVHCCLYFIPATGHSLRPLDIEFMKRLSKVVNIVPVIAKADTLTLEERVHFKQRITADLLSNGIDVYPQKEFDEDSEDRLVNEKFREMIPFAVVGSDHEYQVNGKRILGRKTKWGTIEVENTTHCEFAYLRDLLIRTHMQNIKDITSSIHFEAYRVKRLNEGSSAMANGMEEKEPEAPEM

binding (His6-GST-PACRG (human)): binds
binding [1]: binds
B2: TMPO (protein, UniProt P42166 1-694)
chain: MPEFLEDPSVLTKDKLKSELVANNVTLPAGEQRKDVYVQLYLQHLTARNRPPLPAGTNSKGPPDFSSDEEREPTPVLGSGAAAAGRSRAAVGRKATKKTDKPRQEDKDDLDVTELTNEDLLDQLVKYGVNPGPIVGTTRKLYEKKLLKLREQGTESRSSTPLPTISSSAENTRQNGSNDSDRYSDNEEGKKKEHKKVKSTRDIVPFSELGTTPSGGGFFQGISFPEISTRPPLGSTELQAAKKVHTSKGDLPREPLVATNLPGRGQLQKLASERNLFISCKSSHDRCLEKSSSSSSQPEHSAMLVSTAASPSLIKETTTGYYKDIVENICGREKSGIQPLCPERSHISDQSPLSSKRKALEESESSQLISPPLAQAIRDYVNSLLVQGGVGSLPGTSNSMPPLDVENIQKRIDQSKFQETEFLSPPRKVPRLSEKSVEERDSGSFVAFQNIPGSELMSSFAKTVVSHSLTTLGLEVAKQSQHDKIDASELSFPFHESILKVIEEEWQQVDRQLPSLACKYPVSSREATQILSVPKVDDEILGFISEATPLGGIQAASTESCNQQLDLALCRAYEAAASALQIATHTAFVAKAMQADISQAAQILSSDPSRTHQALGILSKTYDAASYICEAAFDEVKMAAHTMGNATVGRRYLWLKDCKINLASKNKLASTPFKGGTLFGGEVCKVIKKRGNKH

binding (His6-GST-PACRG (human)): binds
binding [1]: binds
B3: SETMAR (protein, UniProt Q53H47 1-684)
chain: MFAEAAKTTRPCGMAEFKEKPEAPTEQLDVACGQENLPVGAWPPGAAPAPFQYTPDHVVGPGADIDPTQITFPGCICVKTPCLPGTCSCLRHGENYDDNSCLRDIGSGGKYAEPVFECNVLCRCSDHCRNRVVQKGLQFHFQVFKTHKKGWGLRTLEFIPKGRFVCEYAGEVLGFSEVQRRIHLQTKSDSNYIIAIREHVYNGQVMETFVDPTYIGNIGRFLNHSCEPNLLMIPVRIDSMVPKLALFAAKDIVPEEELSYDYSGRYLNLTVSEDKERLDHGKLRKPCYCGAKSCTAFLPFDSSLYCPVEKSNISCGNEKEPSMCGSAPSVFPSCKRLTLETMKMMLDKKQIRAIFLFEFKMGRKAAETTRNINNAFGPGTANERTVQWWFKKFCKGDESLEDEERSGRPSEVDNDQLRAIIEADPLTTTREVAEELNVNHSTVVRHLKQIGKVKKLDKWVPHELTENQKNRRFEVSSSLILRNHNEPFLDRIVTCDEKWILYDNRRRSAQWLDQEEAPKHFPKPILHPKKVMVTIWWSAAGLIHYSFLNPGETITSEKYAQEIDEMNQKLQRLQLALVNRKGPILLHDNARPHVAQPTLQKLNELGYEVLPHPPYSPDLLPTNYHVFKHLNNFLQGKRFHNQQDAENAFQEFVESQSTDFYATGINQLISRWQKCVDCNGSYFD

binding (His6-GST-PACRG (human)): binds
binding [1]: binds
B4: ALDH18A1 (protein, UniProt P54886 1-795)
chain: MLSQVYRCGFQPFNQHLLPWVKCTTVFRSHCIQPSVIRHVRSWSNIPFITVPLSRTHGKSFAHRSELKHAKRIVVKLGSAVVTRGDECGLALGRLASIVEQVSVLQNQGREMMLVTSGAVAFGKQRLRHEILLSQSVRQALHSGQNQLKEMAIPVLEARACAAAGQSGLMALYEAMFTQYSICAAQILVTNLDFHDEQKRRNLNGTLHELLRMNIVPIVNTNDAVVPPAEPNSDLQGVNVISVKDNDSLAARLAVEMKTDLLIVLSDVEGLFDSPPGSDDAKLIDIFYPGDQQSVTFGTKSRVGMGGMEAKVKAALWALQGGTSVVIANGTHPKVSGHVITDIVEGKKVGTFFSEVKPAGPTVEQQGEMARSGGRMLATLEPEQRAEIIHHLADLLTDQRDEILLANKKDLEEAEGRLAAPLLKRLSLSTSKLNSLAIGLRQIAASSQDSVGRVLRRTRIAKNLELEQVTVPIGVLLVIFESRPDCLPQVAALAIASGNGLLLKGGKEAAHSNRILHLLTQEALSIHGVKEAVQLVNTREEVEDLCRLDKMIDLIIPRGSSQLVRDIQKAAKGIPVMGHSEGICHMYVDSEASVDKVTRLVRDSKCEYPAACNALETLLIHRDLLRTPLFDQIIDMLRVEQVKIHAGPKFASYLTFSPSEVKSLRTEYGDLELCIEVVDNVQDAIDHIHKYGSSHTDVIVTEDENTAEFFLQHVDSACVFWNASTRFSDGYRFGLGAEVGISTSRIHARGPVGLEGLLTTKWLLRGKDHVVSDFSEHGSLKYLHENLPIPQRNTN

binding (His6-GST-PACRG (human)): binds
binding [1]: binds
B5: ORC2 (protein, UniProt Q13416 1-577)
chain: MSKPELKEDKMLEVHFVGDDDVLNHILDREGGAKLKKERAQLLVNPKKIIKKPEYDLEEDDQEVLKDQNYVEIMGRDVQESLKNGSATGGGNKVYSFQNRKHSEKMAKLASELAKTPQKSVSFSLKNDPEITINVPQSSKGHSASDKVQPKNNDKSEFLSTAPRSLRKRLIVPRSHSDSESEYSASNSEDDEGVAQEHEEDTNAVIFSQKIQAQNRVVSAPVGKETPSKRMKRDKTSDLVEEYFEAHSSSKVLTSDRTLQKLKRAKLDQQTLRNLLSKVSPSFSAELKQLNQQYEKLFHKWMLQLHLGFNIVLYGLGSKRDLLERFRTTMLQDSIHVVINGFFPGISVKSVLNSITEEVLDHMGTFRSILDQLDWIVNKFKEDSSLELFLLIHNLDSQMLRGEKSQQIIGQLSSLHNIYLIASIDHLNAPLMWDHAKQSLFNWLWYETTTYSPYTEETSYENSLLVKQSGSLPLSSLTHVLRSLTPNARGIFRLLIKYQLDNQDNPSYIGLSFQDFYQQCREAFLVNSDLTLRAQLTEFRDHKLIRTKKGTDGVEYLLIPVDNGTLTDFLEKEEEEA

binding (His6-GST-PACRG (human)): binds
binding [1]: binds
B6: MID1 (protein, UniProt O15344 1-667)
chain: METLESELTCPICLELFEDPLLLPCAHSLCFNCAHRILVSHCATNESVESITAFQCPTCRHVITLSQRGLDGLKRNVTLQNIIDRFQKASVSGPNSPSETRRERAFDANTMTSAEKVLCQFCDQDPAQDAVKTCVTCEVSYCDECLKATHPNKKPFTGHRLIEPIPDSHIRGLMCLEHEDEKVNMYCVTDDQLICALCKLVGRHRDHQVAALSERYDKLKQNLESNLTNLIKRNTELETLLAKLIQTCQHVEVNASRQEAKLTEECDLLIEIIQQRRQIIGTKIKEGKVMRLRKLAQQIANCKQCIERSASLISQAEHSLKENDHARFLQTAKNITERVSMATASSQVLIPEINLNDTFDTFALDFSREKKLLECLDYLTAPNPPTIREELCTASYDTITVHWTSDDEFSVVSYELQYTIFTGQANVVSLCNSADSWMIVPNIKQNHYTVHGLQSGTKYIFMVKAINQAGSRSSEPGKLKTNSQPFKLDPKSAHRKLKVSHDNLTVERDESSSKKSHTPERFTSQGSYGVAGNVFIDSGRHYWEVVISGSTWYAIGLAYKSAPKHEWIGKNSASWALCRCNNNWVVRHNSKEIPIEPAPHLRRVGILLDYDNGSIAFYDALNSIHLYTFDVAFAQPVCPTFTVWNKCLTIITGLPIPDHLDCTEQLP

binding (His6-GST-PACRG (human)): binds
binding [1]: binds
B7: CCDC6 (protein, UniProt Q16204 1-474)
chain: MADSASESDTDGAGGNSSSSAAMQSSCSSTSGGGGGGGGGGGGGKSGGIVISPFRLEELTNRLASLQQENKVLKIELETYKLKCKALQEENRDLRKASVTIQARAEQEEEFISNTLFKKIQALQKEKETLAVNYEKEEEFLTNELSRKLMQLQHEKAELEQHLEQEQEFQVNKLMKKIKKLENDTISKQLTLEQLRREKIDLENTLEQEQEALVNRLWKRMDKLEAEKRILQEKLDQPVSAPPSPRDISMEIDSPENMMRHIRFLKNEVERLKKQLRAAQLQHSEKMAQYLEEERHMREENLRLQRKLQREMERREALCRQLSESESSLEMDDERYFNEMSAQGLRPRTVSSPIPYTPSPSSSRPISPGLSYASHTVGFTPPTSLTRAGMSYYNSPGLHVQHMGTSHGITRPSPRRSNSPDKFKRPTPPPSPNTQTPVQPPPPPPPPPMQPTVPSAATSQPTPSQHSAHPSSQP

binding (His6-GST-PACRG (human)): binds
binding [1]: binds
B8: ABCD3 (protein, UniProt P28288 1-659)
chain: MAAFSKYLTARNSSLAGAAFLLLCLLHKRRRALGLHGKKSGKPPLQNNEKEGKKERAVVDKVFFSRLIQILKIMVPRTFCKETGYLVLIAVMLVSRTYCDVWMIQNGTLIESGIIGRSRKDFKRYLLNFIAAMPLISLVNNFLKYGLNELKLCFRVRLTKYLYEEYLQAFTYYKMGNLDNRIANPDQLLTQDVEKFCNSVVDLYSNLSKPFLDIVLYIFKLTSAIGAQGPASMMAYLVVSGLFLTRLRRPIGKMTITEQKYEGEYRYVNSRLITNSEEIAFYNGNKREKQTVHSVFRKLVEHLHNFILFRFSMGFIDSIIAKYLATVVGYLVVSRPFLDLSHPRHLKSTHSELLEDYYQSGRMLLRMSQALGRIVLAGREMTRLAGFTARITELMQVLKDLNHGKYERTMVSQQEKGIEGVQVIPLIPGAGEIIIADNIIKFDHVPLATPNGDVLIRDLNFEVRSGANVLICGPNGCGKSSLFRVLGELWPLFGGRLTKPERGKLFYVPQRPYMTLGTLRDQVIYPDGREDQKRKGISDLVLKEYLDNVQLGHILEREGGWDSVQDWMDVLSGGEKQRMAMARLFYHKPQFAILDECTSAVSVDVEGYIYSHCRKVGITLFTVSHRKSLWKHHEYYLHMDGRGNYEFKQITEDTVEFGS
